One test deals with SALL4 (UniProt Q8BX22). Nature of the test: affinity purification with mass spectrometry; WT and K5A mutated SALL4 pull down followed by MS, triplicates; antibody not stated.
The next test deals with Sall4^K5A (UniProt Q8BX22). The description is as above.

Sequences of proteins named here, by UniProt entry; tags and fusion partners are left off. A change or cut given only in a name is not applied to a line headed by its entry.
UniProt Q8BX22: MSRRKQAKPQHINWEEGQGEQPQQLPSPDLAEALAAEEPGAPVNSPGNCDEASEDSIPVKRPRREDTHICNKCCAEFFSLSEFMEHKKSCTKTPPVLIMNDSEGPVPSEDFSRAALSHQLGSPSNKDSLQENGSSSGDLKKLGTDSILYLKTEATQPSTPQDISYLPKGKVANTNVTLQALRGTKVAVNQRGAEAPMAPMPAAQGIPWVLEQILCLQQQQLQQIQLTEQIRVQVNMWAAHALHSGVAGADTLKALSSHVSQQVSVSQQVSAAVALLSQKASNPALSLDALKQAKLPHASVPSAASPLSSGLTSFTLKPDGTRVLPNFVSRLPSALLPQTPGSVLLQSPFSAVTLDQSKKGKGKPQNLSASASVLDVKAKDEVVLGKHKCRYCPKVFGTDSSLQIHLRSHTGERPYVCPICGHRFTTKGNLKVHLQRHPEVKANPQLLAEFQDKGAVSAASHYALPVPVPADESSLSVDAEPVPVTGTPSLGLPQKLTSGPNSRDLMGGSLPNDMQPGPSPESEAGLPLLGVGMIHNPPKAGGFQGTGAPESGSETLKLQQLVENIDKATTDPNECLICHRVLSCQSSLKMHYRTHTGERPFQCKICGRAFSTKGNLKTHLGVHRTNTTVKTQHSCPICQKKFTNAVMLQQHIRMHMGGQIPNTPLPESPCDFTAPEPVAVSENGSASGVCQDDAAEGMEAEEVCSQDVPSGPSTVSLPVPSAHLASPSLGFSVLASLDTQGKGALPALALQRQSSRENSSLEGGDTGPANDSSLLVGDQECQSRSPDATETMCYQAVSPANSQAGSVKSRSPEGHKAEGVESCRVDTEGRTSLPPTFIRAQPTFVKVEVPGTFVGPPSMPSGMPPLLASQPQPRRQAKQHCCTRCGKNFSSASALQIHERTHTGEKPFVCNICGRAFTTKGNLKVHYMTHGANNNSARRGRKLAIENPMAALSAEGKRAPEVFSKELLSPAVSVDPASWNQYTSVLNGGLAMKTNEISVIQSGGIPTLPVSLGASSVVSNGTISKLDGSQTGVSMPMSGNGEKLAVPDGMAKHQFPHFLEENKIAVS
UniProt O35343: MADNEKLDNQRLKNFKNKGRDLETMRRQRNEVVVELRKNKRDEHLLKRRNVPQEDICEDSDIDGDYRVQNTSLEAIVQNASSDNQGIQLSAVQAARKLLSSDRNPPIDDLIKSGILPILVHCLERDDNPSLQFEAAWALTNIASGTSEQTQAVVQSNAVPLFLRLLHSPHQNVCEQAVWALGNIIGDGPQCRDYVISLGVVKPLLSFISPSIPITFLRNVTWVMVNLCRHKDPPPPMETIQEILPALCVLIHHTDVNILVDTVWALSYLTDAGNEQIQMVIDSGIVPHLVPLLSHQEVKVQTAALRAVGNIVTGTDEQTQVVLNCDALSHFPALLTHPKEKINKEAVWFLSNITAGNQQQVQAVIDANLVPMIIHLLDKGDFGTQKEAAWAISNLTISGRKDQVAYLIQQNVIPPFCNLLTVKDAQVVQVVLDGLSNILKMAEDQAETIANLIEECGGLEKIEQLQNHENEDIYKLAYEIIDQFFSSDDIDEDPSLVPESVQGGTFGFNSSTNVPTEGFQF
UniProt P11103: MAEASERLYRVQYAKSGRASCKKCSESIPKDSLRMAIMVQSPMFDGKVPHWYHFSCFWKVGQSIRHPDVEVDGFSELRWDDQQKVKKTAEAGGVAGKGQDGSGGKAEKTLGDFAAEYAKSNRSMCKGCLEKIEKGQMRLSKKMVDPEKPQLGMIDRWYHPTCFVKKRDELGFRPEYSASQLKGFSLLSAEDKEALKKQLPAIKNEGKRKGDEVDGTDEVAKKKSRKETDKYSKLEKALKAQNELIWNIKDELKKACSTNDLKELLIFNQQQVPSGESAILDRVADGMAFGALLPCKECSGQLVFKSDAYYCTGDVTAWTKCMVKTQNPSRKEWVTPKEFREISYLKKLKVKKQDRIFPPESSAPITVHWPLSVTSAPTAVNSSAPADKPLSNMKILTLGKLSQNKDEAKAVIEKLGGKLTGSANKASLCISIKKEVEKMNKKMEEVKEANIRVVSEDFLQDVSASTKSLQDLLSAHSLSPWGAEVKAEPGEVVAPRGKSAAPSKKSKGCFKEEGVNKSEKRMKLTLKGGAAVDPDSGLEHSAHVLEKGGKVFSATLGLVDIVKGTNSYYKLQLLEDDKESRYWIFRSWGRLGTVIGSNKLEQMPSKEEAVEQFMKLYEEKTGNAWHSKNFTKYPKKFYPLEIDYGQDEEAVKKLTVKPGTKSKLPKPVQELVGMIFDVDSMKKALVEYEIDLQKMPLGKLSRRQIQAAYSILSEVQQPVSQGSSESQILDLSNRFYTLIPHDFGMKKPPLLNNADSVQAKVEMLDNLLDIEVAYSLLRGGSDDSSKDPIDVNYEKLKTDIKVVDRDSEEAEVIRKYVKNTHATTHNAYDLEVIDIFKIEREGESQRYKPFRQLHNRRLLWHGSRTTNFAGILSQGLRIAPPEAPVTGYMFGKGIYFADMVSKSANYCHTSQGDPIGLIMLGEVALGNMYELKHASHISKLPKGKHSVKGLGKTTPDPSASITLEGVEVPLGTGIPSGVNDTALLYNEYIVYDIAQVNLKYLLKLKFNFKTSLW

We go through five molecules from PMC10199099.

These are yes or no findings as the source states them, for the method shown. Binding seen in cells or lysates may run through a third protein. Here binding means that the protein was enriched with, or labelled near, the bait; the list need not be complete.

As to Kpna4 (from UniProt O35343 1-521), the binding result with SALL4 and with Sall4^K5A was “binds” in each case.
For the molecule Parp1 (from UniProt P11103 1-1013), the binding entry in the test with SALL4 and in the test with Sall4^K5A was “binds” throughout.

B1: Lig3 (protein, UniProt P97386 1-1015)
chain: MTLAFKILFPRNLCALGRKELCLFPEQNRWAAISQFSQWSETNLLGGCCLLQRRKPVLALQRGHLRPRATHLTFWPGSHVGLCTGPCAMAEQRFCVDYAKRGTAGCKKCKEKIVKGVCRIGKVVPNPFSESGGDMKEWYHIKCMFEKLERARATTKKIEDLTELEGWEELEDNEKEQISQHIADLSSKAAATPKKKAAVQAKLTTTGQVTSPVKGASFITSTNPRKFSGFSAAKPNNSEQAPSSPAPGTSLSASKCDPKHKDCLLREFRKLCAMVAENPSYNTKTQIIHDFLQKGSTGGFSDGFHGDVYLTVKLLLPGVIKSVYNLNDKQIVKLFSRIFNCNPDDMARDLEQGDVSETIRIFFEQSKSFPPAAKSLLTIQEVDAFLLHLSKLTKEDEQQQALQDIASRCTANDLKCIIRLIKHDLKMNSGAKHVLDALDPNAYEAFKASRNLQDVVERVLHNEQEVEKDPGRRRALRVQASLMTPVQPMLAEACKSIEYAMKKCPNGMFSEIKYDGERVQVHKKGDHFSYFSRSLKPVLPHKVAHFKDYIPKAFPGGQSMILDSEVLLIDNNTGKPLPFGTLGVHKKAAFQDANVCLFVFDCIYFNDVSLMDRPLCERRKFLHDNMVEIRNRIMFSEMKQVTKASDLADMINRVIREGLEGLVLKDVKGTYEPGKRHWLKVKKDYLNEGAMADTADLVVLGAFYGQGSKGGMMSIFLMGCYDPDSQKWCTVTKCAGGHDDATLARLQKELVMVKISKDPSKIPSWLKINKIYYPDFIVPDPKKAAVWEITGAEFSRSEAHTADGISIRFPRCTRIRDDKDWKSATNLPQLKELYQLSKDKADFAVVAGDEASPTTGGSSGENEGTAGSAGPCKGPPSKSSASAKTTEQKLNSPSSRGGIKPIPKHSPMKPGEKLAVKSSPVKVGMKRKATDETPCLKKVLLDVFTGVRLYLPPSTPDFKRLKRYFVAFDGDLVQEFDMGSATHVLGNREKNTDAQLVSSEWIWACIRKRRLIAPC
Regarding B1, the binding entry in the test with SALL4 and with Sall4^K5A was “binds” throughout.

B2: Tfam (protein, UniProt P40630 43-243)
chain: SSMGSYPKKPMSSYLRFSTEQLPKFKAKHPDAKLSELVRKIAALWRELPEAEKKVYEADFKAEWKAYKEAVSKYKEQLTPSQLMGMEKEARQRRLKKKALVKRRELILLGKPKRPRSAYNIYVSESFQEAKDDSAQGKLKLVNEAWKNLSPEEKQAYIQLAKDDRIRYDNEMKSWEEQMAEVGRSDLIRRSVKRSGDISEH
With B2, the binding result in the test with SALL4 and with Sall4^K5A was “binds” in each case.

B3: Hmbox1 (protein, UniProt Q8BJA3 1-419)
chain: MLSSFPVVLLETMSHYTDEPRFTIEQIDLLQRLRRTGMTKHEILHALETLDRLDQEHSDKFGRRSSYGGSSYGNSTNNVPASSSTATASTQTQHSGMSPSPSNSYDTSPLPCTTNQNGRENNDRLSTSNGKMSPSRYHANSMGQRSYSFEASEEDLDVDDKVEELMRRDSSVIKEEIKAFLANRRISQAVVAQVTGISQSRISHWLLQQGSDLSEQKKRAFYRWYQLEKTNPGATLSMRPAPIPIEDPEWRQTPPPVSATPGTFRLRRGSRFTWRKECLAVMESYFNENQYPDEAKREEIANACNAVIQKPGKKLSDLERVTSLKVYNWFANRRKEIKRRANIAAILESHGIDVQSPGGHSNSDDVDGNDYSEQDDSTSHSDHQDPISLAVEMAAVNHTILALARQGANEIKTEALDDD
On to B3, for which the binding result with SALL4 and with Sall4^K5A was “binds” in each case.
